These results are taken from the supplement of paper PMC10735217.

The other results are listed elsewhere or left out. Repeats in this data set agree poorly, so a single value says little.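 In a drug-repurposing library screen, luminescence reads luciferase driven by eight TEAD-binding elements, stably integrated into human kidney-derived cells. Compounds scoring over five robust Z scores above the plate mean are called hits.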

The test system of this test is HEK293A TEAD-LUC reporter. Briefly: TEAD-luciferase reporter activity (YAP activation), robust Z score vs plate; higher = stronger YAP/TEAD activation. Conditions: 24 h. A general note: A reporter such as luciferase makes a cellular process visible.

For the compound `NS(=O)(=O)c1cc(-c2nnn[nH]2)c(NCc2cccs2)cc1Cl` [azosemide], the TEAD-luciferase reporter activity is inactive: -0.793 (compound concentration: 200 nM), inactive: -0.503 (compound concentration: 2 uM) and active: 6.39 (compound concentration: 10 uM).
Take `CN1CCc2nc(C(=O)N[C@@H]3C[C@@H](C(=O)N(C)C)CC[C@@H]3NC(=O)C(=O)Nc3ccc(Cl)cn3)sc2C1` [Edoxaban tosilate]: the TEAD-luciferase reporter activity (compound concentration: 200 nM) is inactive: -1.1, the TEAD-luciferase reporter activity (compound concentration: 2 uM) is inactive: -0.759 and the TEAD-luciferase reporter activity (compound concentration: 10 uM) is inactive: -0.467.
Regarding `CCN1c2ncc(CCOc3cc[n+]([O-])c4ccccc34)cc2C(=O)N(C)c2cccnc21`, the TEAD-luciferase reporter activity is inactive: -1.24 (compound concentration: 200 nM), inactive: 1.63 (compound concentration: 2 uM) and inactive: 0.955 (compound concentration: 10 uM).
Take `Cc1ccc(C(=O)O)cc1-c1cccc(NCCNCC(O)c2cccc(Cl)c2)c1` (stereo not drawn): the TEAD-luciferase reporter activity by setting is: (compound concentration: 200 nM) inactive: 1.83; (compound concentration: 2 uM) inactive: 1.52; (compound concentration: 10 uM) inactive: -0.614.
As to `Cc1sc(C)c2c1CCCc1cn[nH]c1-2`, the TEAD-luciferase reporter activity (compound concentration: 200 nM) was inactive: -2.05, the TEAD-luciferase reporter activity (compound concentration: 2 uM) is inactive: -0.929 and the TEAD-luciferase reporter activity (compound concentration: 10 uM) was inactive: -0.515.
Regarding `COC(=O)CCc1c2/C=C/3\N=C(C(=C3CCC(=O)O)C)/C=C/3\N/C(=C\C4=N/C(=C\c(c1C)[nH]2)/C(=C4C)C=C)/C1=CC=C([C@H](C31C)C(=O)OC)C(=O)OC` (stereo partly drawn), the TEAD-luciferase reporter activity is inactive: -2 (compound concentration: 200 nM), inactive: -1.26 (compound concentration: 2 uM) and inactive: -0.492 (compound concentration: 10 uM).
As for `CCc1nn(Cc2ccc(-c3ccccc3-c3nnn[nH]3)cc2)/c(=N/C(=O)C2=C(C(=O)O)CCC2)s1`, the TEAD-luciferase reporter activity (compound concentration: 200 nM) was inactive: -2.45, the TEAD-luciferase reporter activity (compound concentration: 2 uM) is inactive: -0.988 and the TEAD-luciferase reporter activity (compound concentration: 10 uM) was inactive: 0.169.
For `COC(=O)C1=C(C)NC(C)=C(C(=O)OCCN(C)Cc2ccccc2)C1c1cccc([N+](=O)[O-])c1` (stereo not drawn) [Nicardipine], the TEAD-luciferase reporter activity reads like this: (compound concentration: 200 nM) inactive: 0.0283; (compound concentration: 2 uM) inactive: -1.17; (compound concentration: 10 uM) inactive: -1.07.
As for `COC(=O)C1=C(C)NC(C)=C(C(=O)OCCN(C)Cc2ccccc2)C1c1cccc([N+](=O)[O-])c1` (stereo not drawn) [nicardipine SR], for the setting “compound concentration: 2 uM”, the TEAD-luciferase reporter activity was inactive: -2.75.
Consider `O=C(CCn1c(CN2CCN(C/C=C/c3ccccc3)CC2)nc2ccccc21)c1ccco1` [fuprazole], for which the TEAD-luciferase reporter activity reads like this: (compound concentration: 200 nM) inactive: -0.735; (compound concentration: 2 uM) inactive: -0.353.
Regarding `COc1cc(F)c(F)c(Nc2ccc(I)cc2F)c1NS(=O)(=O)C1(C[C@H](O)CO)CC1` [Refametinib], the TEAD-luciferase reporter activity reads like this: (compound concentration: 200 nM) inactive: -2.53; (compound concentration: 2 uM) inactive: -0.818; (compound concentration: 10 uM) inactive: -0.814.
As to `CC(C)NCC(O)COC1CCC(C(C)(C)C)CC1` (stereo not drawn), the TEAD-luciferase reporter activity runs as follows: (compound concentration: 200 nM) inactive: 2.1; (compound concentration: 2 uM) inactive: -0.748; (compound concentration: 10 uM) inactive: -0.427.
For `O=C(N[C@H]1[C@H](OC(=O)c2cccnc2)O[C@H](COC(=O)c2cccnc2)[C@@H](OC(=O)c2cccnc2)[C@@H]1OC(=O)c1cccnc1)c1cccnc1` the same measures were inactive: 0.908, inactive: -0.699 and inactive: 1.69.
`CN(C)CCCC(=O)N1Cc2ccccc2CC2(CCCCN2CC2CCNCC2)C1` (stereo not drawn): the TEAD-luciferase reporter activity (compound concentration: 200 nM) is inactive: -0.84 and the TEAD-luciferase reporter activity (compound concentration: 10 uM) was inactive: -0.535.
Turning to `O=C(NC1CCN(c2nc3ncccc3o2)CC1)C1CC1`, the TEAD-luciferase reporter activity runs as follows: (compound concentration: 200 nM) inactive: 1.41; (compound concentration: 10 uM) inactive: 4.71.
With `CCOC(=O)c1ncn2c1CN(C)C(=O)c1cc(F)ccc1-2`, the TEAD-luciferase reporter activity by setting is: (compound concentration: 200 nM) inactive: 1.06; (compound concentration: 10 uM) inactive: 1.97.
In the case of `CCOC(=O)c1ncn2c1CN(C)C(=O)c1cc(F)ccc1-2` [flumazenil], the TEAD-luciferase reporter activity (compound concentration: 2 uM) was inactive: -0.977.
Regarding `COc1ccc(CN2CCN(c3ccc(Br)c(OC)n3)CC2)cc1OC`, the TEAD-luciferase reporter activity is inactive: 0.842 (compound concentration: 200 nM), inactive: -0.604 (compound concentration: 2 uM) and inactive: 1.35 (compound concentration: 10 uM).
`O=C1CCCN1CCCCN1CCN(c2cc(C(F)(F)F)ccn2)CC1`: the TEAD-luciferase reporter activity runs as follows: (compound concentration: 200 nM) inactive: -1.68; (compound concentration: 2 uM) inactive: 1.35; (compound concentration: 10 uM) inactive: 1.31.
As for `c1ccc(C2=N[C@@H](c3ccccc3)[C@@H](c3ccccc3)N2)cc1`, the TEAD-luciferase reporter activity runs as follows: (compound concentration: 200 nM) inactive: -0.952; (compound concentration: 2 uM) inactive: -2.13; (compound concentration: 10 uM) inactive: -0.365.
The corresponding values for `CC(C(=O)O)c1ccc(-c2cn3ccccc3n2)cc1` (stereo not drawn) [miroprofen] are inactive: 1.51, inactive: -2.46 and inactive: 1.61.
`CN(N=O)C(=O)NC1C(O)OC(CO)C(O)C1O` (stereo not drawn) [Streptozocin]: the TEAD-luciferase reporter activity is inactive: -1.2 (compound concentration: 200 nM), inactive: -1.16 (compound concentration: 2 uM) and inactive: -0.199 (compound concentration: 10 uM).
The corresponding values for `Cc1[nH]c2cccc(OCC(O)CNCCOc3ccccc3)c2c1Cl` (stereo not drawn) [indopanolol] are inactive: 0.0928, inactive: -0.483 and inactive: 3.41.
Consider `CC(=O)N[C@@H](CNC(=O)[C@@H]1CCCN(C(=O)CCC2CCNCC2)C1)C(=O)O`, for which the TEAD-luciferase reporter activity runs as follows: (compound concentration: 200 nM) inactive: 0.137; (compound concentration: 2 uM) inactive: -0.0501; (compound concentration: 10 uM) inactive: 1.55.
For `OCc1ccccc1`, the TEAD-luciferase reporter activity runs as follows: (compound concentration: 200 nM) inactive: 0.242; (compound concentration: 2 uM) inactive: -0.688; (compound concentration: 10 uM) inactive: 0.984.
The corresponding values for `O=C(O)Cc1ccc(OCc2ccccc2)c(Cl)c1` [Benzofenac] are inactive: -1.95, inactive: 0.0423 and inactive: -0.156.
On to `CC(C)[C@@H]1NC(=O)[C@H](CCCNC(=N)N)NC(=O)[C@H](CCC(N)=O)NC(=O)[C@H](Cc2cnc[nH]2)NC(=O)[C@H](CCC(=O)O)NC(=O)[C@@H]2CCCN2C(=O)[C@H](CO)NC(=O)[C@H](CCC(N)=O)NC1=O`, for which the TEAD-luciferase reporter activity is inactive: -1.26 (compound concentration: 200 nM), inactive: 2.93 (compound concentration: 2 uM) and inactive: 2.05 (compound concentration: 10 uM).
